The whole screen tested about 2,800 compounds, of which fewer than 10 were called active. About 7% were inconclusive and are not listed. Calls follow the shape of the dose curve; as a rule, active = well fitted inhibition curve with a large enough effect; inconclusive = small, poorly fitted or top-dose-only effect; inactive = no such curve, though single readings can be large or run the other way. The list shows a part of the results.
Target: Metallo-beta-lactamase type 2 (Klebsiella pneumoniae) (UniProt C7C422)
Assay: qHTS to identify inhibitors of the New Delhi Metallo-beta-lactamase (NDM): Nitrocefin screen against the machine-based learning selections. Also: % of control where 0% means no effect.
Conditions: NDM-1 enzyme, nitrocefin hydrolysis, absorbance 485 nm; activity, negative = inhibition: at the top concentration
Outline: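 Hydrolysis by 2 nM NDM-1 was followed by absorbance after >30 min compound preincubation in HEPES pH 7.0 buffer with 1 uM Zn2SO4. For nitrocefin (16.7 uM, 15 min, 485 nm) and meropenem (50 uM, 30 min, 300 nm), each substrate ran on separate plates.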

Protein sequences, listed by entry. Tags and fused reporters are not part of them. Lines headed by an entry give the natural chain unless they say otherwise; changes in a name come on top.
UniProt C7C422: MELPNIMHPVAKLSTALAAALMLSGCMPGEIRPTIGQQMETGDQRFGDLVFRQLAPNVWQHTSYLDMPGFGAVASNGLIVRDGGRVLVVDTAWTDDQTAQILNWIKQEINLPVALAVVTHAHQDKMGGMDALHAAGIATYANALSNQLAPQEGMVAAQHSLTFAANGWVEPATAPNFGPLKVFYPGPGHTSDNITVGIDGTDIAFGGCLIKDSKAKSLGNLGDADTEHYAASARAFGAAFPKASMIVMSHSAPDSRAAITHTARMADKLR

activity, negative = inhibition, inactive:
CC1=C[C@@H](CNC(=O)c2cncnc2)[C@H](C(C)C)C[C@H]1CC(=O)N(C)Cc1ccccc1 -2.08% [at 57.5 µM]
CC(=O)N1CCN(c2cc(-c3noc([C@@H]4CCCN4Cc4ccc(C(F)(F)F)cc4)n3)ccn2)CC1 -1.32%
CNC(=O)[C@@H](Cc1ccccc1)N1CCC[C@H]1C(=O)NC1CCOCC1 -20.8% [at 57.5 µM]
Cc1ccccc1NC(=O)Cn1c(-c2cccc(Cl)c2)nc(C)c(CCO)c1=O 16.6%
COc1ccccc1-c1[nH]nc2ncc(-c3ccccc3O)nc12 1.8% [at 57.5 µM]
O=C(O)c1ccc(CN2CC[C@@H](c3ccc4ccccc4c3)[C@H](O)C2)cc1 3.48%
CC(C)C1C(=O)N(C)CCN1C(=O)c1cc(COc2cccc(F)c2)[nH]n1 (stereo not given) -6.59%
CC1=C[C@@H](CNC(=O)CC(C)(C)CC(=O)O)[C@H](C(C)C)C[C@H]1Cc1nc2ccccc2n1C -7.02%
Brc1ccc(CN2CCC(c3nc4ccncc4[nH]3)C2)cc1 (stereo not given) 6.95%
O=C(c1cccc(O)c1)N1CCNc2cnc(Nc3cccc(F)c3)nc2C1 -1.19% [at 57.5 µM]
COCCn1nc2n(c1=O)CCN(S(=O)(=O)c1c(C)nn(C)c1C)CC2 -2.42%
COc1ccc(S(=O)(=O)N2C[C@@H](F)C[C@H]2C(=O)N2CCCCC2)cc1OC -1.97%
O=C(O)c1cc(-c2cccc(CO)c2)cc(S(=O)(=O)NC2CCCC2)c1 -4.47%
COCCOc1ncccc1-c1noc([C@@H]2CCCN2C2CCN(C)CC2)n1 -1.06% [at 57.5 µM]
Cc1ccccc1-c1cnc2[nH]cc(CC(=O)NCCN3CCOCC3)c2c1 1.35% [at 57.5 µM]
CN1C[C@@H](NC(=O)c2ccccn2)C[C@H]1c1nc(-c2ccc(Cl)cc2)no1 2.39% [at 57.5 µM]
O=C(O)c1cc(-c2ccccc2CO)cc(S(=O)(=O)N2CCCCCC2)c1 5.45%
O=C(O)C[C@@H]1CCN(S(=O)(=O)c2ccccc2)C[C@@H]1CCN1CCN(c2cccc(C(F)(F)F)c2)CC1 -10.8%
O=C(Nc1ccccc1)Nc1ccc(=O)n2c1[C@@H]1C[C@@H](CN(C(=O)COc3ccccc3)C1)C2 -2.89%
COCc1nc(C2CCCN(C(=O)c3nccn3C)C2)no1 (stereo not given) -3.96%
O=C(C[C@@H]1O[C@H](CNS(=O)(=O)c2ccc(Cl)cc2)[C@@H](O)[C@H]1O)N1CCN(c2ccc(F)cc2)CC1 14.7%
CN(Cc1cccnc1)Cc1nc(C2(O)CCN(Cc3ccc(F)cc3)CC2)cs1 -7.36% [at 57.5 µM]
COCCn1ncc(N2CCC(NC(=O)C(C)C)CC2)cc1=O -4.74%
COc1ccc(C[C@H](NC(=O)[C@@]2(O)C[C@@H](O)[C@H](O)[C@@H](NC(=O)Nc3ccc(C)cc3)C2)C(N)=O)cc1 -1.82%
COc1ccc(CCC(=O)N2CCC3(CC2)CCC(O)(CN(C)C)CC3)cc1 6.82%

No new results follow: 5 of the compounds above.
activity, negative = inhibition, inactive:
O=C(C[C@@H]1O[C@H](CNS(=O)(=O)c2ccc(Cl)cc2)[C@@H](O)[C@H]1O)N1CCN(c2ccc(F)cc2)CC1 14.7%
CN(Cc1cccnc1)Cc1nc(C2(O)CCN(Cc3ccc(F)cc3)CC2)cs1 -7.36% [at 57.5 µM]
COCCn1ncc(N2CCC(NC(=O)C(C)C)CC2)cc1=O -4.74%
COc1ccc(C[C@H](NC(=O)[C@@]2(O)C[C@@H](O)[C@H](O)[C@@H](NC(=O)Nc3ccc(C)cc3)C2)C(N)=O)cc1 -1.82%
COc1ccc(CCC(=O)N2CCC3(CC2)CCC(O)(CN(C)C)CC3)cc1 6.82%

From PubChem BioAssay AID1794844 (National Center for Advancing Translational Sciences (NCATS), 2023)
